Some entries share one result that the patent states for a list of compounds.
Legend:
[1] = molecular target: T1, G-CSF receptor (Mus musculus, UniProt P40223); test: Luciferase reporter gene assay on G-CSF-responsive NFS60 cell line; type: cell-based, murine; details: concentration range of 1 to 100 micromolar
T1 construct: they express endogenous G-CSF receptors; endogenous in cells; host or cells: NFS60 murine myeloid cell line with a G-CSF-responsive luciferase reporter
T1 sequence (P40223 26-837): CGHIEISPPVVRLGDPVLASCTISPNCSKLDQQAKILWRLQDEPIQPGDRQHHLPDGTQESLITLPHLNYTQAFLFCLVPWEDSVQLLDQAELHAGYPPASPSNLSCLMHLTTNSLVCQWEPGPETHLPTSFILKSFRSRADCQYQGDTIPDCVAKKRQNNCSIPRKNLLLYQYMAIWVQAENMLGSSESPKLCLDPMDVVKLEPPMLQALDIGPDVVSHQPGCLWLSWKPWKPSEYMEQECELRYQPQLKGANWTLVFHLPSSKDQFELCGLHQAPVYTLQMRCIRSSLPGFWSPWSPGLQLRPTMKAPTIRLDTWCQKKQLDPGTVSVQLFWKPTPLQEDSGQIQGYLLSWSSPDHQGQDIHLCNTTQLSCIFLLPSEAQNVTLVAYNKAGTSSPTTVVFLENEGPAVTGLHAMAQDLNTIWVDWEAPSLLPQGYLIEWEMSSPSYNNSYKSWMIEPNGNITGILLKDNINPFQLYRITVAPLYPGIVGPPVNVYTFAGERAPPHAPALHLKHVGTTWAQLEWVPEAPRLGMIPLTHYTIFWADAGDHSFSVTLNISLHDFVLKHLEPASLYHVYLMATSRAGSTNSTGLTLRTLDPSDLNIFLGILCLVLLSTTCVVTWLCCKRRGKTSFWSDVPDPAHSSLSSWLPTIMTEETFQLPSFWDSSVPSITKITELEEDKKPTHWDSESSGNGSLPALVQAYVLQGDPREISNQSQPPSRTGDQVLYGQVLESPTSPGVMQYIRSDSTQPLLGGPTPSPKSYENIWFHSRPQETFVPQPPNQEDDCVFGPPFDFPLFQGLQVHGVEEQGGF
Method: Activity of compound 1a is below the threshold of 150% over background. The study was performed as a Luciferase assay configured on the G-CSF-responsive NFS60 cell line as described in Tian et al., Science 281, 257-259 (1998). The experiments shown in FIGS. 2-8 used the same NFS60 cell line.
Compounds of the present invention are tested for potency as agonist of a dimeric cell-surface receptor in a Luciferase reporter gene assay such as described in Tian et al., Science 281, 257-259 (1998). For example, for G-CSF NFS60 cells (Holmes, et al., Proc. Natl. Acad. Sci. USA 82: 6687-6691 (1985)) are selected because they express endogenous G-CSF receptors closely matching the pattern of STAT (signal transducers and activators of transcription) activation observed in primary murine and human bone marrow cells.

[2] = test system: CFU-G; test: CFU-G assay (murine assay); type: cell-based; details: concentration range of 1 to 100 micromolar

SMILES | activation, % of control, luciferase assay [1] | activation, % of control, murine assay [2]
c1ccc(C23NC(=Nc4nc5ccccc5[nH]4)NC2(c2ccccn2)NC(=Nc2nc4ccccc4[nH]2)N3)nc1 (centres unmarked) [Compound 1a, 2,5-Bis[2-benzimidazolylimino]-3a,6a-bis(2-pyridyl)-1,2,3,3a,4,5,6,6a-octahydroimidazo[4,5-d]imidazole] | above 150% | above 150%
c1ccc(C23NC(=Nc4nc5ccccc5[nH]4)NC2(c2ccccc2)NC(=Nc2nc4ccccc4[nH]2)N3)cc1 (centres unmarked) [Compound 2a, 2,5-Bis[2-benzimidazolylimino]-3a,6a-diphenyl-1,2,3,3a,4,5,6,6a-octahydroimidazo[4,5-d]imidazole] | above 150% | 
Cc1ccc2nc(N=C3NC4(c5ccccn5)NC(=Nc5nc6ccccc6[nH]5)NC4(c4ccccn4)N3)[nH]c2c1.O=C(O)C(F)(F)F.O=C(O)C(F)(F)F (centres unmarked) [Compound 3a, 5-(2-benzimidazolylimino)-2-[(5-methyl-2-benzimidazolyl)imino]-3a,6a-bis(2-pyridyl)-1,2,3,3a,4,5,6,6a-octahydroimidazo[4,5-d]imidazole bis(trifluoroacetate) salt] | above 150% | above 150%
